From patent publication US20240115549A1, “TREATMENT OF MENTAL DISORDERS” (GH Research Ireland Limited, priority 2022, published 2024)
Some results were stated once for a whole list of compounds, not compound by compound.

Assay: LC-MS/MS of 5-MeO-DMT, bufotenine and 5-MIAA in breastmilk, serum and urine of a treated PPD patient; infant dose estimates
Conditions: 18 mg or 25 mg single or final dose, linear extrapolation

COc1ccc2[nH]cc(CCN(C)C)c2c1 [5-MeO-DMT]
RID extrapolated to higher doses: below 10%

COc1ccc2[nH]cc(CC(=O)O)c2c1 [5-MIAA, 5-methoxyindole-3-acetic acid]
RID extrapolated to higher doses: below 10%
